Measurements as given in patent US20030108904A1.
Results are given in words; binding and its absence hold for the method and conditions named. Some binding calls cover weakened binding; strength is not graded here.

By UniProt entry, the sequences of proteins in these tests, tags left out. Where a name states a change or a piece, a line headed by the entry shows the natural chain unless it says otherwise. Residues count along the entry.
UniProt Q5KU26: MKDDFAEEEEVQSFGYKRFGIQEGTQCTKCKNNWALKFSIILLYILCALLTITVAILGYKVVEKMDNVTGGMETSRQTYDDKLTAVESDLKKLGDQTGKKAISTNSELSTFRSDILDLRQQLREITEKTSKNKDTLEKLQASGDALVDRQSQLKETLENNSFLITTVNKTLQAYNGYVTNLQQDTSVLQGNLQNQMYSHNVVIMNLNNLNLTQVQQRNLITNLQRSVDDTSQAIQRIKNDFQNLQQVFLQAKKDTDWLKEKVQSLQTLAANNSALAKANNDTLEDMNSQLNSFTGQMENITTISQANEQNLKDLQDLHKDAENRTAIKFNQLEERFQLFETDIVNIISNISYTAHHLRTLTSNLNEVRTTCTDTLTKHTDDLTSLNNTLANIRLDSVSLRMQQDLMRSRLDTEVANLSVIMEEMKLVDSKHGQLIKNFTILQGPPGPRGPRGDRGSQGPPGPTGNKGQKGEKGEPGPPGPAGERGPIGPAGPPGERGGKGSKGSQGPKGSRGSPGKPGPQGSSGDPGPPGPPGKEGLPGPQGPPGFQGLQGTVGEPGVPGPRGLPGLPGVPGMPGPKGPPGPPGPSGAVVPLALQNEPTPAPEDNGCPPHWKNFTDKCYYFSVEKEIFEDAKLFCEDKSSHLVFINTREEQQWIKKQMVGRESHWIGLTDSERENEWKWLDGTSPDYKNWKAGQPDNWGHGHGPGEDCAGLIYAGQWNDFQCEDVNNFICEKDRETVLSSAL
UniProt P02768, residues 25-609: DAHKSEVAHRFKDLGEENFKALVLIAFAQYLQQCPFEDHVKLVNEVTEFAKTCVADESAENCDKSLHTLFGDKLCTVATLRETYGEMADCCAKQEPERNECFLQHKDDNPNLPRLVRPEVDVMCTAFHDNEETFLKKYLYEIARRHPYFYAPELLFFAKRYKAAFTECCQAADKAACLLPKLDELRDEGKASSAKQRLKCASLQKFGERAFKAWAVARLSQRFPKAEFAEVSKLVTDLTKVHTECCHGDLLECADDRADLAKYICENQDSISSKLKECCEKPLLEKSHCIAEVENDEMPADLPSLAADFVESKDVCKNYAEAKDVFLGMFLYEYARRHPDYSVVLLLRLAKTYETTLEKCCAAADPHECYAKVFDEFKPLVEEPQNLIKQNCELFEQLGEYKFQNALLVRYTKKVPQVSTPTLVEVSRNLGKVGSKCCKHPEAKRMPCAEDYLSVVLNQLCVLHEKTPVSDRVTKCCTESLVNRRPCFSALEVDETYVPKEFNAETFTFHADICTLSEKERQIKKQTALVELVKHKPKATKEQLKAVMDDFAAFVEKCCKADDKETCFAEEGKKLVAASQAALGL

Columns and labels:
[1] = molecular target: hSRCL-P1 stably expressed on CHO cells (CHO/hSRCL-P1), from vector pcDNA3.1/Myc-His A-hSRCL-P1 (human) (UniProt Q5KU26); assay: fluorescence microscopy on cells expressing hSRCL-P1 (FIG. 6 legend)
[2] = molecular target: hSRCL-P1 transiently expressed in CHO cells from vector pEGFP-N1-hSRCL-P1 (human) (UniProt Q5KU26); assay: fluorescence microscopy on CHO cells transiently expressing hSRCL-P1
[3] = molecular target: hSRCL-P1 stably expressed on CHO cells (CHO/hSRCL-P1), from vector pcDNA3.1/Myc-His A-hSRCL-P1 (human) (UniProt Q5KU26); assay: fluorescence microscopy; 10 µg/ml AGE-HSA on CHO/hSRCL-P1 cells, 3 h at 4° C., detected with anti-HSA antibody and Alexa 594 anti-goat IgG

Measured: binding

AGE-HSA (AGE-human serum albumin) (from UniProt P02768 25-609) (ligand)
binds: all assays above
